Experimental data from patent US6399606B1, “Neuroprotective agents and methods related thereto” (Nippon Kayaku Co., Ltd., priority 1999, dated 2002).
Some entries share one result that the patent states for a list of compounds.

tested on: Differentiated PC12 (rat pheochromocytoma) cells; assay: PC12 cell protection against taxol assay (LDH release); assay type: cell-based; details: 10 μM compound, 19 h pre-treatment, taxol 0.24 mM, LDH 72 hours after taxol, 100% = 30 mM NK5805

SMILES | protection level (% survival by LDH release, relative to 30 mM NK5805)
COC(=O)CC(CSCC(NC(=O)OC(C)(C)C)C(=O)OC)C(=O)c1cccnc1 (stereo not shown) [compound 251] | at least 50%
COC(=O)CC(CSCC(N)C(=O)OC)C(=O)c1cccnc1 (stereo not shown) [compound 253] | at least 50%
CCOC(=O)CC(CSCCN(C1CCCCC1)S(=O)(=O)c1cccs1)C(=O)c1cccnc1 (stereo not shown) [compound 257] | at least 50%
CC(=O)N[C@@H](CSCC(CC(=O)N1CCCCC1)C(=O)c1cccnc1)C(=O)N1CCCCC1 (stereo partly shown) [compound 260] | at least 50%
CC(=O)N(CCSCC(CC(=O)N1CCCCC1)C(=O)c1cccnc1)C1CCCCC1 (stereo not shown) [compound 264] | at least 50%
CCOC(=O)CC(CSCCN(C(=O)CC)C1CCCCC1)C(=O)c1cccnc1 (stereo not shown) [compound 268] | at least 50%
CCOC(=O)CC(CSCCN(C(=O)COC)C1CCCCC1)C(=O)c1cccnc1 (stereo not shown) [compound 269] | at least 50%
CCOC(=O)CC(CSCCN(C(=O)c1ccno1)C1CCCCC1)C(=O)c1cccnc1 (stereo not shown) [compound 270] | at least 50%
CCOC(=O)CC(CSCCN(C(=O)OCC)C1CCCCC1)C(=O)c1cccnc1 (stereo not shown) [compound 271] | at least 50%
CCOC(=O)CC(CSCCN(C(=O)N1CCOCC1)C1CCCCC1)C(=O)c1cccnc1 (stereo not shown) [compound 272] | at least 50%
CCNC(=O)N(CCSCC(CC(=O)OCC)C(=O)c1cccnc1)C1CCCCC1 (stereo not shown) [compound 273] | at least 50%
CCCCN(CCSCC(CC(=O)OCC)C(=O)c1cccnc1)C(=O)c1cc(F)cc(F)c1 (stereo not shown) [compound 275] | at least 50%
COC(=O)CC(CSC[C@H](NC(=O)C(F)(F)F)C(=O)OC)C(=O)c1cccnc1 (stereo partly shown) [compound 277] | at least 50%
COC(=O)CC(CSC[C@H](NC(=O)NS(=O)(=O)c1ccccc1C)C(=O)OC)C(=O)c1cccnc1 (stereo partly shown) [compound 278] | at least 50%
COC(=O)CC(CSC[C@H](NC(=O)Oc1ccc(F)cc1)C(=O)OC)C(=O)c1cccnc1 (stereo partly shown) [compound 279] | at least 50%
COC(=O)CC(CSC[C@H](NC(=O)Oc1ccc(C)cc1)C(=O)OC)C(=O)c1cccnc1 (stereo partly shown) [compound 280] | at least 50%
COC(=O)CC(CSC[C@H](NC(=O)Oc1ccccc1)C(=O)OC)C(=O)c1cccnc1 (stereo partly shown) [compound 281] | at least 50%
COC(=O)CC(CSC[C@H](NC(=O)Oc1ccc(OC)cc1)C(=O)OC)C(=O)c1cccnc1 (stereo partly shown) [compound 282] | at least 50%
C=CCNC(=O)NC(CSCC(CC(=O)OC)C(=O)c1cccnc1)C(=O)OC (stereo not shown) [compound 285] | at least 50%
CC(=O)N(CCSCC(CC(=O)N1CCN(C)CC1)C(=O)c1cccnc1)C1CCCCC1 (stereo not shown) [compound 335] | at least 50%
CCOC(=O)CC(CSCCNC(=O)c1ccc(F)cc1)C(=O)c1cccnc1 (stereo not shown) [compound 337] | at least 50%
CCOC(=O)CC(CSCCNC(=O)c1cccc(C#N)c1)C(=O)c1cccnc1 (stereo not shown) [compound 338] | at least 50%
CCOC(=O)CC(CSCCNC(=O)c1cc(C(F)(F)F)cc(C(F)(F)F)c1)C(=O)c1cccnc1 (stereo not shown) [compound 339] | at least 50%
CCOC(=O)CC(CSCCNC(=O)c1ccc(C#N)cc1)C(=O)c1cccnc1 (stereo not shown) [compound 340] | at least 50%
CCOC(=O)CC(CSCCNC(=O)c1cc(F)cc(F)c1)C(=O)c1cccnc1 (stereo not shown) [compound 341] | at least 50%
CCOC(=O)CC(CSCCNC(=O)c1ccco1)C(=O)c1cccnc1 (stereo not shown) [compound 342] | at least 50%
CCOC(=O)CC(CSCCNC(=O)Nc1ccc(F)cc1)C(=O)c1cccnc1 (stereo not shown) [compound 344] | at least 50%

SMILES | protection level (% survival by LDH release, relative to 30 mM NK5805)
CCOC(=O)CC(CSCCNC(=O)Nc1ccc(OCC)cc1)C(=O)c1cccnc1 (stereo not shown) [compound 345] | at least 50%
CCCCN(CCSCC(CC(=O)OCC)C(=O)c1cccnc1)C(=O)C12CC3CC(CC(C3)C1)C2 (stereo not shown) [compound 355] | at least 50%
CCOC(=O)CC(CSCCN(C(=O)c1ccc(F)cc1)C1CCCCC1)C(=O)c1cccnc1 (stereo not shown) [compound 357] | at least 50%
CCOC(=O)CC(CSCCN(C(=O)c1cccc(C#N)c1)C1CCCCC1)C(=O)c1cccnc1 (stereo not shown) [compound 358] | at least 50%
CCOC(=O)CC(CSCCN(C(=O)c1cccs1)C1CCCCC1)C(=O)c1cccnc1 (stereo not shown) [compound 359] | at least 50%
CCOC(=O)CC(CSCCN(C(=O)Nc1ccc(OCC)cc1)C1CCCCC1)C(=O)c1cccnc1 (stereo not shown) [compound 360] | at least 50%
CCOC(=O)CC(CSCCN(C(=O)NC(C)C)C1CCCCC1)C(=O)c1cccnc1 (stereo not shown) [compound 361] | at least 50%
CCOC(=O)CC(CSCCN(C(=O)Nc1ccc(F)cc1)C1CCCCC1)C(=O)c1cccnc1 (stereo not shown) [compound 362] | at least 50%
CCOC(=O)CC(CSCCNC(=O)Nc1ccccc1)C(=O)c1cccnc1 (stereo not shown) [compound 363] | at least 50%
CCOC(=O)CC(CSCCNC(=O)NC(C)C)C(=O)c1cccnc1 (stereo not shown) [compound 364] | at least 50%
O=C(NCCSCC(CC(=O)N1CCCCC1)C(=O)c1cccnc1)c1ccc(F)cc1 (stereo not shown) [compound 365] | at least 50%
CC(=O)NCCSCC(CC(=O)OC(C)(C)C)C(=O)c1cccnc1 (stereo not shown) [compound 366] | at least 50%
N#Cc1cccc(C(=O)NCCSCC(CC(=O)N2CCCCC2)C(=O)c2cccnc2)c1 (stereo not shown) [compound 367] | at least 50%
O=C(NCCSCC(CC(=O)N1CCCCC1)C(=O)c1cccnc1)c1cc(C(F)(F)F)cc(C(F)(F)F)c1 (stereo not shown) [compound 368] | at least 50%
O=C(NCCSCC(CC(=O)N1CCCCC1)C(=O)c1cccnc1)Nc1ccc(F)cc1 (stereo not shown) [compound 369] | at least 50%
O=C(NCCSCC(CC(=O)N1CCCCC1)C(=O)c1cccnc1)c1ccco1 (stereo not shown) [compound 371] | at least 50%
O=C(NCCSCC(CC(=O)N1CCCCC1)C(=O)c1cccnc1)Nc1ccccc1 (stereo not shown) [compound 372] | at least 50%
CC(C)NC(=O)NCCSCC(CC(=O)N1CCCCC1)C(=O)c1cccnc1 (stereo not shown) [compound 373] | at least 50%
O=C(NCCSCC(CC(=O)N1CCCCC1)C(=O)c1cccnc1)c1cc(F)cc(F)c1 (stereo not shown) [compound 374] | at least 50%
N#Cc1ccc(C(=O)NCCSCC(CC(=O)N2CCCCC2)C(=O)c2cccnc2)cc1 (stereo not shown) [compound 375] | at least 50%
NCCSCC(CC(=O)N1CCCCC1)C(=O)c1cccnc1 (stereo not shown) [compound 420] | at least 50%
CCOC(=O)C(CSCC(CC(=O)N(C)CCN(C)C)C(=O)c1cccnc1)NC(C)=O (stereo not shown) [compound 423] | at least 50%
CCOC(=O)C(CSCC(CC(=O)N(C)CCCN(C)C)C(=O)c1cccnc1)NC(C)=O (stereo not shown) [compound 424] | at least 50%
CCOC(=O)C(CSCC(CC(=O)NCCCN1CCOCC1)C(=O)c1cccnc1)NC(C)=O (stereo not shown) [compound 425] | at least 50%
CCOC(=O)C(CSCC(CC(=O)N(C)CCN(CC)CC)C(=O)c1cccnc1)NC(C)=O (stereo not shown) [compound 426] | at least 50%
CC(=O)NC(CSCC(CC(=O)N(C)CCN(C)C)C(=O)c1cccnc1)C(=O)N(C)CCN(C)C (stereo not shown) [compound 432] | at least 50%
CC(=O)NC(CSCC(CC(=O)N1CCN(C)CC1)C(=O)c1cccnc1)C(=O)N1CCN(C)CC1 (stereo not shown) [compound 433] | at least 50%

tested on: Neonatal rat SCG neurons; assay: Rat superior cervical ganglion cell protection against taxol assay (LDH release); assay type: cell-based; details: 10 μM compound, 1 mM taxol after 36 hours, LDH 72 hours after taxol, 100% = 30 mM NK5805

SMILES | protection level (% survival by LDH release, relative to 30 mM NK5805)
COC(=O)[C@H](CSCC(CC(=O)O)C(=O)c1cccnc1)NC(=O)c1ccc(OC(F)(F)F)cc1 (stereo partly shown) [compound 25] | at least 50%
COC(=O)[C@H](CSCC(CC(=O)O)C(=O)c1cccnc1)NC(=O)c1cccc(C)c1 (stereo partly shown) [compound 30] | at least 50%
CC(=O)NCCSCC(CC(=O)O)C(=O)c1cccnc1 (stereo not shown) [compound 59] | at least 50%
COC(=O)C(CSCC(CC(=O)O)C(=O)c1cccnc1)NC(=O)C=Cc1ccccc1 (stereo not shown) [compound 77] | at least 50%
COC(=O)[C@H](CSCC(CC(=O)O)C(=O)c1cccnc1)NC(=O)NCc1ccc(C)cc1 (stereo partly shown) [compound 120] | at least 50%
CCOC(=O)CC(CSCCNC(C)=O)C(=O)c1cccnc1 (stereo not shown) [compound 130] | at least 50%
CCCCCCNC(=O)N[C@@H](CSCC(CC(=O)O)C(=O)c1cccnc1)C(=O)OC (stereo partly shown) [compound 133] | at least 50%
